# Laboratory results from the supplement of paper PMC6411743.
# ± gives the standard deviation of the averaged measurements. The entries are a selection whose mix differs from that of the whole data set.
# What was measured:
# Assay in all cases: NP40-soluble protein abundance relative to vehicle (solubility fold change) (ratio); higher = more soluble protein in presence of ATP
# [1] = target: T1, ABHD6 (UniProt Q9BV23)
# T1 sequence (whole entry): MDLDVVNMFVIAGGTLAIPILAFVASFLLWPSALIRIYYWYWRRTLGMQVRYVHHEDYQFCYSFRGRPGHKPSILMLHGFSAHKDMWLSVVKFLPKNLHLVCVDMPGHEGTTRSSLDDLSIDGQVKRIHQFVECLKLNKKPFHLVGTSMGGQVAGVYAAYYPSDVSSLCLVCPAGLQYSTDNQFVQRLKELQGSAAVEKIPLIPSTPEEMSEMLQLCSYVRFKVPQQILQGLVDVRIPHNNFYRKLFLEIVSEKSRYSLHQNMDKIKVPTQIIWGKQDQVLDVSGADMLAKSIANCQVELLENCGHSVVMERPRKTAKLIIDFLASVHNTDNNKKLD
# Method in brief: (§1)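 Jurkat crude lysate (Dounce-homogenised) was treated with eight concentrations from 0.1 to 10 mM for 10 min at room temperature, then 3 min at 37 °C. It was solubilised with 0.8% NP40 and benzonase (60 min, 4 °C) and ultracentrifuged, and the supernatant was TMT-labelled for LC-MS/MS. Intensities were vsn-normalised, and the value is the fold change against the NP40-processed vehicle per replicate, from three independent experiments.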
# [2] = target: T2, ADAT1 (UniProt Q9BUB4)
# T2 sequence (whole entry): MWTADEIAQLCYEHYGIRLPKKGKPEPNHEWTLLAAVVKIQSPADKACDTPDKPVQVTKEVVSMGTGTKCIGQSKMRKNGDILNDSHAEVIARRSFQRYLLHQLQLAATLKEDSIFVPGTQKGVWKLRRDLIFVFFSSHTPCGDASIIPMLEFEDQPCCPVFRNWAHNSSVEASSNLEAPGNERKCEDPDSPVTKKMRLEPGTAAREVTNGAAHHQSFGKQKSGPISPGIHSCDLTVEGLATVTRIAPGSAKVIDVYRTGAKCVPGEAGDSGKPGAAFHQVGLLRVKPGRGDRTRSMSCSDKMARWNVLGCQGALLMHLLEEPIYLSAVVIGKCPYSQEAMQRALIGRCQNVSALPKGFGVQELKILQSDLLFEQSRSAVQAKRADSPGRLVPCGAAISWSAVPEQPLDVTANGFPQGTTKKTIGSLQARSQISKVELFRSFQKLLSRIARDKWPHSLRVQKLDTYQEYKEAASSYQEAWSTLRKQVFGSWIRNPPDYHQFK
# Method in brief: as §1
# [3] = target: T3, DNAJC2 (UniProt Q99543)
# T3 sequence (whole entry): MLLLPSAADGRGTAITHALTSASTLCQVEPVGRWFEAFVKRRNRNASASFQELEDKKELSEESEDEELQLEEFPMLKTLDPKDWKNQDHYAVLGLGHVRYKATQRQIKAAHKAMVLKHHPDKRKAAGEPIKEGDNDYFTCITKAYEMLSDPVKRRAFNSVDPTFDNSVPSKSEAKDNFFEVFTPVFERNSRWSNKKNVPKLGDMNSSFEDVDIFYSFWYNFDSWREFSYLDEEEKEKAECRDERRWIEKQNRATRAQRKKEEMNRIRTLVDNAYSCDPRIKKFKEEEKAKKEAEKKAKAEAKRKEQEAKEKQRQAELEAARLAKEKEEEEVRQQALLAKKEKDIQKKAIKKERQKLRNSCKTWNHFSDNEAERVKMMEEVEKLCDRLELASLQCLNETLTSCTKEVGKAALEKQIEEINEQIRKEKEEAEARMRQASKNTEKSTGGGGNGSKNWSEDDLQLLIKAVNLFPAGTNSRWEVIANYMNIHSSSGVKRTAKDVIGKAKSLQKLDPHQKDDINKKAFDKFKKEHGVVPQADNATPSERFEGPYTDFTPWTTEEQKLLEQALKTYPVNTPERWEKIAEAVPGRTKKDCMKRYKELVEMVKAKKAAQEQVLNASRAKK
# Method in brief: as §1
# [4] = target: T4, DOHH (UniProt Q9BU89)
# T4 sequence (whole entry): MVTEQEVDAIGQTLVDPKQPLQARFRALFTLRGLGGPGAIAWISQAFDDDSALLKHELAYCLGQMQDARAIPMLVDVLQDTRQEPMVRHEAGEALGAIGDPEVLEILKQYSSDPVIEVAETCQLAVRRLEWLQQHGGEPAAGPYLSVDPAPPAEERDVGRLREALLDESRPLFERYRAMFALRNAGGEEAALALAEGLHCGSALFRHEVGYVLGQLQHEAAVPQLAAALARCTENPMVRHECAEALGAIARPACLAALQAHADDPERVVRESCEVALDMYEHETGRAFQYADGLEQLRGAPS
# Method in brief: as §1
# [5] = target: T5, EFHD1 (UniProt Q9BUP0)
# T5 sequence (whole entry): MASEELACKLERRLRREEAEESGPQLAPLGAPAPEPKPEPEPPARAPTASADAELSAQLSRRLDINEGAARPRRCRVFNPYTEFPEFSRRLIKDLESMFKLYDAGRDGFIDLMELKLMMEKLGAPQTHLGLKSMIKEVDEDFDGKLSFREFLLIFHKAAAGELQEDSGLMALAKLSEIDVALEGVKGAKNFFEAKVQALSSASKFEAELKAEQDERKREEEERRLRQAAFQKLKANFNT
# Method in brief: as §1
# [6] = target: T6, FUNDC2 (UniProt Q9BWH2)
# T6 sequence (whole entry): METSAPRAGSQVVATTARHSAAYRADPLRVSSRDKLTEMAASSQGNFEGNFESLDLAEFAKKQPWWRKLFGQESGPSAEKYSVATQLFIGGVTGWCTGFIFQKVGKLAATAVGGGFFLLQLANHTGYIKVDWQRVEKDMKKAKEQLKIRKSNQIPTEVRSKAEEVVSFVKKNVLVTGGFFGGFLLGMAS
# Method in brief: as §1
# [7] = target: T7, IFIH1 (UniProt Q9BYX4)
# T7 sequence (whole entry): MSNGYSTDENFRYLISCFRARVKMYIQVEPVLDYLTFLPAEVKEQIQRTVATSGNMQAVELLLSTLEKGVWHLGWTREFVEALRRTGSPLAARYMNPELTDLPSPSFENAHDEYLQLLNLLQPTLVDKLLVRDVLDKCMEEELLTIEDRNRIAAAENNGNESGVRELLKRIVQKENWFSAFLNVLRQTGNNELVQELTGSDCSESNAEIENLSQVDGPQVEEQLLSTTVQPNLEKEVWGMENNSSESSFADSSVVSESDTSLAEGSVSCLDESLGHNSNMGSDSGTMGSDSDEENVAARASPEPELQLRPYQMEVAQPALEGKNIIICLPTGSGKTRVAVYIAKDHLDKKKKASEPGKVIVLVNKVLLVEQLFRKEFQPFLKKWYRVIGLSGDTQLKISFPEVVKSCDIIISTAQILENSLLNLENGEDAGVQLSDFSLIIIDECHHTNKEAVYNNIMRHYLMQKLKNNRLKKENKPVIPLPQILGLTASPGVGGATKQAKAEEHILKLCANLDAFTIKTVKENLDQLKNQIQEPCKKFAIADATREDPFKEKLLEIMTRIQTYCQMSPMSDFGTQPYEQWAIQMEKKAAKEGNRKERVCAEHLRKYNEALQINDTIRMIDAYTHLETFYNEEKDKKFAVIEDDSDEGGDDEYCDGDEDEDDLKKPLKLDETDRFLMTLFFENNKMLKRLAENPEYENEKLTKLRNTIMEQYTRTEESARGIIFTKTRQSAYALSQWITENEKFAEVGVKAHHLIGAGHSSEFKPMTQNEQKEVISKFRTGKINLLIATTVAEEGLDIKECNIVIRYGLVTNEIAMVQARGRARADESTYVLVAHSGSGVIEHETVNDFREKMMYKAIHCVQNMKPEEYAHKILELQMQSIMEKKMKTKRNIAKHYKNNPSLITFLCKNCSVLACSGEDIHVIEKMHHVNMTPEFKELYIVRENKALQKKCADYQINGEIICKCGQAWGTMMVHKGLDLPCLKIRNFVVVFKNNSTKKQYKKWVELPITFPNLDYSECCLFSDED
# Method in brief: as §1
smiles,measurement,setting,value
Nc1ncnc2c1ncn2[C@@H]1O[C@H](COP(=O)(O)OP(=O)(O)OP(=O)(O)O)[C@@H](O)[C@H]1O [adenosine triphosphate],NP40-soluble protein abundance,[1]; concentration: 1mM,1.04 ± 0.084
same,NP40-soluble protein abundance,[1]; concentration: 2mM,1.11 ± 0.042
same,NP40-soluble protein abundance,[1]; concentration: 4mM,0.975 ± 0.051
same,NP40-soluble protein abundance,[1]; concentration: 6mM,0.952 ± 0.038
same,NP40-soluble protein abundance,[1]; concentration: 8mM,1.1 ± 0.15
same,NP40-soluble protein abundance,[1]; concentration: 10mM,0.972 ± 0.075
same,NP40-soluble protein abundance,[2]; concentration: 1mM,1.05 ± 0.087
same,NP40-soluble protein abundance,[2]; concentration: 2mM,1.08 ± 0.06
same,NP40-soluble protein abundance,[2]; concentration: 4mM,1.12 ± 0.15
same,NP40-soluble protein abundance,[2]; concentration: 6mM,1.03 ± 0.12
same,NP40-soluble protein abundance,[2]; concentration: 8mM,1.04 ± 0.11
same,NP40-soluble protein abundance,[2]; concentration: 10mM,1.05 ± 0.095
same,NP40-soluble protein abundance,[3]; concentration: 1mM,0.986 ± 0.046
same,NP40-soluble protein abundance,[3]; concentration: 2mM,1 ± 0.012
same,NP40-soluble protein abundance,[3]; concentration: 4mM,0.9869 ± 0.008
same,NP40-soluble protein abundance,[3]; concentration: 6mM,1.011 ± 0.0035
same,NP40-soluble protein abundance,[3]; concentration: 8mM,0.962 ± 0.018
same,NP40-soluble protein abundance,[3]; concentration: 10mM,0.987 ± 0.022
same,NP40-soluble protein abundance,[4]; concentration: 1mM,0.977 ± 0.071
same,NP40-soluble protein abundance,[4]; concentration: 2mM,0.976 ± 0.027
same,NP40-soluble protein abundance,[4]; concentration: 4mM,0.997 ± 0.033
same,NP40-soluble protein abundance,[4]; concentration: 6mM,0.948 ± 0.062
same,NP40-soluble protein abundance,[4]; concentration: 8mM,0.963 ± 0.024
same,NP40-soluble protein abundance,[4]; concentration: 10mM,0.894 ± 0.06
same,NP40-soluble protein abundance,[5]; concentration: 1mM,0.82 ± 0.043
same,NP40-soluble protein abundance,[5]; concentration: 2mM,0.831 ± 0.018
same,NP40-soluble protein abundance,[5]; concentration: 4mM,0.878 ± 0.02
same,NP40-soluble protein abundance,[5]; concentration: 6mM,0.897 ± 0.014
same,NP40-soluble protein abundance,[5]; concentration: 8mM,0.95 ± 0.018
same,NP40-soluble protein abundance,[5]; concentration: 10mM,0.9 ± 0.09
same,NP40-soluble protein abundance,[6]; concentration: 1mM,0.885 ± 0.033
same,NP40-soluble protein abundance,[6]; concentration: 2mM,0.913 ± 0.016
same,NP40-soluble protein abundance,[6]; concentration: 4mM,0.899 ± 0.061
same,NP40-soluble protein abundance,[6]; concentration: 6mM,0.929 ± 0.058
same,NP40-soluble protein abundance,[6]; concentration: 8mM,0.876 ± 0.044
same,NP40-soluble protein abundance,[6]; concentration: 10mM,0.88 ± 0.016
same,NP40-soluble protein abundance,[7]; concentration: 1mM,0.9729 ± 0.0016
same,NP40-soluble protein abundance,[7]; concentration: 2mM,0.9913 ± 0.0064
same,NP40-soluble protein abundance,[7]; concentration: 4mM,1.021 ± 0.0022
same,NP40-soluble protein abundance,[7]; concentration: 6mM,0.9856 ± 0.0031
same,NP40-soluble protein abundance,[7]; concentration: 8mM,0.961 ± 0.022
same,NP40-soluble protein abundance,[7]; concentration: 10mM,1.04 ± 0.024

# Some of the entries above, reformatted:
smiles | measurement | setting | value
Nc1ncnc2c1ncn2[C@@H]1O[C@H](COP(=O)(O)OP(=O)(O)OP(=O)(O)O)[C@@H](O)[C@H]1O [adenosine triphosphate] | NP40-soluble protein abundance | [4]; concentration: 2mM | 0.976 ± 0.027
same | NP40-soluble protein abundance | [4]; concentration: 4mM | 0.997 ± 0.033
